Results: publication PMC1414084
No constants are given. Whether binding was seen depends on the method and setting. For some of these results: In cells and extracts the contact can be indirect. Some results given as binding are weak or reduced against the parent protein; the word gives no strength. Values belong to the binder of their own block, whether it stands above or below them.

Key:
[1] = molecular target: T1, PH1354, SNO like protein, biotinylated, in vitro translated (Pyrococcus horikoshii OT3) (UniProt O59079); test: pull-down; in vitro pull-down; biotinylated driver and ^35S-labeled protein, both in vitro translated in reticulocyte lysate, pre-incubated 15 minutes at 37°C (non-heat) or 75°C (heat), mixed 1 h at 25°C, Dynabeads Streptavidin, washed with TBS-T, autoradiography
T1 sequence (chain, biotinylated lysine (Transcend Biotinylated lysine-tRNA)): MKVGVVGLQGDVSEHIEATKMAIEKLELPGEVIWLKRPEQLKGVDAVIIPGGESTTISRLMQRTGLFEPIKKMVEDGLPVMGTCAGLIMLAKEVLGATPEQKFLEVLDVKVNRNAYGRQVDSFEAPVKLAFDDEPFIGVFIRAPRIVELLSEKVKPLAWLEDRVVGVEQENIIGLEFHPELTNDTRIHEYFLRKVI

[2] = molecular target: T2, PH1645, ortholog of ADP-specific phosphofructokinase (Pyrococcus horikoshii OT3) (UniProt O59355); test: two-hybrid; mammalian two-hybrid; bait fused to the Gal4 DNA-binding domain (BIND), prey to the VP16 transcriptional activation domain (ACT); luciferase reporter; cultured mammalian cells, 37°C; positive from 3 times the background activity (level 1), the selected set is level 2 (>=5 to <10 times) and level 3 (>=10 times)
T2 sequence: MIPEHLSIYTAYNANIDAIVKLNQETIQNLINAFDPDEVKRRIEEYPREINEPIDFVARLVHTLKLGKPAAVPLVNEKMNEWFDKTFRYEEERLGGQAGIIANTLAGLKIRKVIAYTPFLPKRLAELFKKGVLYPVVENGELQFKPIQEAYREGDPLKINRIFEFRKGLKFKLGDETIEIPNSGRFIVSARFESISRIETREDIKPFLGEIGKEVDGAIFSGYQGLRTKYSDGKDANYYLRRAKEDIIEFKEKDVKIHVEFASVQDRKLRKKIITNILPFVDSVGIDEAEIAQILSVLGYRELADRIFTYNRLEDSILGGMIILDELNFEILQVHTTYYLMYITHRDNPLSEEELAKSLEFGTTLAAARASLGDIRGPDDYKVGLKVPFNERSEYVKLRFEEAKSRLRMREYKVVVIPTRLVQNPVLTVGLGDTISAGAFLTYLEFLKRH

[3] = molecular target: PH1884, triosephosphate isomerase (Pyrococcus horikoshii OT3) (UniProt O59536); test: as above
[4] = molecular target: PH1589, deoxycytidylate deaminase (Pyrococcus horikoshii OT3) (UniProt O59259); test: as above
[5] = molecular target: T3, PH0795, hypothetical protein, biotinylated, in vitro translated (Pyrococcus horikoshii OT3) (UniProt O58525); test: pull-down; in vitro pull-down; biotinylated driver and ^35S-labeled protein, both in vitro translated in reticulocyte lysate, pre-incubated 15 minutes at 37°C (non-heat) or 75°C (heat), mixed 1 h at 25°C, Dynabeads Streptavidin, washed with TBS-T, autoradiography
T3 sequence (chain, biotinylated lysine (Transcend Biotinylated lysine-tRNA)): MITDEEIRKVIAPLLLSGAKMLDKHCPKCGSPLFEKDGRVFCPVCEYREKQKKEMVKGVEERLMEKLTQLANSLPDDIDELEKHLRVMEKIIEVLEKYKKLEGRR

[6] = molecular target: T4, PH0245, 20S proteasome subunit, biotinylated, in vitro translated (Pyrococcus horikoshii OT3) (UniProt O57983); test: as above
T4 sequence (chain, biotinylated lysine (Transcend Biotinylated lysine-tRNA)): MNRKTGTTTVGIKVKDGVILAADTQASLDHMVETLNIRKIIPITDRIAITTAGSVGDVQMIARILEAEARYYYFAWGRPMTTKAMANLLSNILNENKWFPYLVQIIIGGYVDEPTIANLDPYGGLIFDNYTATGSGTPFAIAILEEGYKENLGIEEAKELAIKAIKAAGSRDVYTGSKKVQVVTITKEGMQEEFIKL

[7] = molecular target: PH0385, MorR-like ATPase (Pyrococcus horikoshii OT3) (UniProt O58122); test: two-hybrid; mammalian two-hybrid; bait fused to the Gal4 DNA-binding domain (BIND), prey to the VP16 transcriptional activation domain (ACT); luciferase reporter; cultured mammalian cells, 37°C; positive from 3 times the background activity (level 1), the selected set is level 2 (>=5 to <10 times) and level 3 (>=10 times)

B1: PH1355, SNZ like protein, ^35S-labeled, in vitro translated (protein, UniProt O59080 1-335)
chain: MDKLKIIMEKGTERLKRGFAKMVKGGVIMDVTNAEQARIAEEAGAVAVMALHKVPADIRKAGGVARMAPVEKIQEIMDAVTIPVMAKCRIGHEAEARILEALGVDMIDESEVLTPADPFFHIYKKKFTAPFVCGARNLGEAVRRIWEGAAMIRTKGEAGTGNIIEAVRHVRLVNENIRLIQRMTDEEIYGVAEKFAEPYLRLAFSVKEISGLPKRVLENEPIYEGFTYREIVEDIYKILLEIKKLGRLPVVNFAAGGVATPADAALMMAMGMDGVFVGSGIFKSSNPPKMARAIVEAVNHWDEPDVLAEISREIGEPMRGQAIEELQVRMEERGI
modifications: L-[^35S] methionine
binding [1]: binds

B2: PH1022, ortholog of mannose-1-phosphate guanylyltransferase (protein, UniProt O58775 1-416)
chain: MNKMKAVILAGGFGTRLRPISSTRPKPMVPVLGKPNLQYILEALEKVKEIDEIILSVHYMRGEIREFIQEKMRDYPKDIRFVNDPMPLETGGALKNVEEYVSDDFLVIYGDVFTNFDYSELIEAHKKNDGLITVALTKVYDPERFGVVITDEEGKIVEFEEKPRKPKTNLVDAGIYMVNKDVLKEIPKNKEIYFEREILPKFVNQGLVYGYKMPKQYYWVDLGTPEDFFYAHQIALDELSKENGYMILGENVEIPDDVEVQGPVYIDDNAKIGHGVKIKAYTYIGPNTIIEDKAYFKRSILLGNDIIKERAELKDAILGEGVVVGKDVIIKENAVIGDYAKIYDNLVIYGAKVLPWKKVEEYEAYIKIKLDPTKVRPGQYPDHCPLGLPECIYKKFKAIAGEKPPCDECIENQWLF
binding [2]: binds

B5: PH0017, ^35S-labeled, in vitro translated (protein, UniProt O57762 1-549)
chain: MAQLAGQPILILPEGTQRYVGRDAQRMNILAARIIAETVRTTLGPKGMDKMLVDSLGDIVITNDGATILDEMDIQHPAAKMMVEVAKTQDKEAGDGTTTAVVIAGELLKKAEELLDQNIHPSIIIKGYTLASQKAQEILDSIAKEVKPDDEEVLLKAAMTAITGKAAEEEREYLAKLAVEAVKLVAEEKDGKLKVDIDNIKLEKKEGGAVRDTRLIRGVVIDKEVVHPGMPKRIENAKIALINDALEVKETETDAEIRITSPEQLQAFLEQEEKMLKEMVDKIKEVGANVVFVQKGIDDLAQHYLAKYGILAVRRVKKSDMEKLAKATGAKIVTNIRDLTPEDLGEAELVEERKVAGENMIFVEGCKNPKAVTILIRGGTEHVVDEVERALEDAIKVVKDILEDGKIIAGGGASEIELSIKLDEYAKEVGGKEQLAIEAFAEALKVIPRTLAENAGLDPIETLVKVIAAHKEKGQTIGIDVYEGEPADMMERGVIEPVRVKKQAIKSASEAAIMILRIDDVIAASKLEKEKEGEKGGGSEEFSGSSDLD
modifications: L-[^35S] methionine
binding [5]: binds

B7: PH0385, MorR-like ATPase (protein, UniProt O58122 1-312)
chain: MVEMDGRKFLKLLKEEVHKAVVGKDDVIELLAIALLAEGHVMIEGVPGVAKTTIAKSFAQVLGLKFSRIQLTPDLLPADILGTVYYDQSDGLWKIKKGPIFANVVLADEINRAQPKTQSALLEAMQERQVTIEGRTFPLEKPFMVIATKNPIEFEGVYNLPEAQVDRFMLNIKIGYPTREEEVEMLRKKDRGELGEVGRIFSREQIVRMINEVKRVKTSEEVLHYLYEIVNETRKDERLIVGASPRASEHLLYASKAKAFLEGRDYVIPDDVKFLAVPVLAHRLLIKAEHEIEGIKGEDIVREILERVEVPI
binding [7]: binds

More lines, now with the values ahead:

binding [3]: binds
B3: PH1884, triosephosphate isomerase (protein, UniProt O59536 1-228)
chain: MKLDEPIIAINFKTYIEATGKRALEIAKAAERVYKETGVTIVVAPQLVDLRMIAENVEIPVFAQHIDPIKPGSHTGHVLPEAVKEAGAVGTLLNHSENRMILADLEAAISRAKEVGLITMVCSNNPAVSAAVAALEPDYVAVEPPELIGTGIPVSKAKPEVITNTVELVRKVNPKVKVLCGAGISTGEDVRKAIELGTVGVLLASGVTKAKDPEKAIRDLVSGIIGKD

binding [4]: binds
B4: PH1589, deoxycytidylate deaminase (protein, UniProt O59259 1-182)
chain: MKVEIVLDKEKAEKIKKIRPTKDEYFMLIAKLVSLRATCPRLRVGAVAVKDGYILATGYNGAPRNMDHCIDVGCIMVDGHCHRAVHAEQNVIAMAARKGISLEGATLYVTHFPCDTCLKLLINAGIKEIVYEEMYPNEVTEMLLKEAQEKGLIKIRQFKLSRERVKEFLEELFPEFCMEKND

binding [6]: binds
B6: PH1553, 20S proteasome subunit, ^35S-labeled, in vitro translated (protein, UniProt O59219 1-260)
chain: MAFVPPQAGYDRAITVFSPDGRLFQVNYAREAVKRGATAVGVKCNEGVVLAVEKRITSRLIEPESYEKIFQIDDHIAAASSGIIADARVLVNRARLEAQIHRLTYGEPAPLAVIVKKICDLKQMHTQYGGVRPFGAALLMAGVNEKPELYETDPSGAYFAWKAVAIGSGRNTAMAIFEEKYKDDMSLEEAIKLAIFALAKTMEKPSAENIEVAIITVKDKKFRKLSREEIEKYLNEVMKEVEEEEVKEKEEDYSELDSHY
modifications: L-[^35S] methionine
